Test results taken from doi:10.1101/798603.
No constants are given. Whether binding was seen depends on the method and setting. Binding seen in cells or lysates may run through a third protein. Some binding calls cover weakened binding; strength is not graded here.

Protein sequences, listed by entry. Tags and fused reporters are not part of them.
UniProt P32497: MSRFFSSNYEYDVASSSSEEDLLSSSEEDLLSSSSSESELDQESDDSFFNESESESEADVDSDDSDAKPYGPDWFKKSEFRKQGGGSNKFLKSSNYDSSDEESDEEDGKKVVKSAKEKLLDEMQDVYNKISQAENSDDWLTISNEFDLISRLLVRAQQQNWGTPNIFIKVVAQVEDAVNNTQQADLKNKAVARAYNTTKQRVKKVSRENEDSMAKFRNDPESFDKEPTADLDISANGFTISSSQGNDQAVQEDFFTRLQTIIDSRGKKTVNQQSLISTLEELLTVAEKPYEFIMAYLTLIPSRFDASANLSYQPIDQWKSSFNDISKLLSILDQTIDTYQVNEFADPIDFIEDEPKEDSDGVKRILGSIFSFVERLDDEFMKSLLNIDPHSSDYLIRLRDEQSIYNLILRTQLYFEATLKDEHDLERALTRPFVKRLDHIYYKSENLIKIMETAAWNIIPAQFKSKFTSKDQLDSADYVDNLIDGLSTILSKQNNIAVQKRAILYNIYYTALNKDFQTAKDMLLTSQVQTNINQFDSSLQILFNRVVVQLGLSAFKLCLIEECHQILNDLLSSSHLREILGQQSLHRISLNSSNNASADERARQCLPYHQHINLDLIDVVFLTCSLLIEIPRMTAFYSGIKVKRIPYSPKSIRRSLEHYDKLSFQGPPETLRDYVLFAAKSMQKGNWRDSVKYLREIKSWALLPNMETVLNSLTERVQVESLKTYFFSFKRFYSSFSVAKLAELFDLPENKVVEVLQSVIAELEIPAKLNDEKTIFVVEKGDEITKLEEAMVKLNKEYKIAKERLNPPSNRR

What was measured:
[1] = biological target: Nip1-TAP (S. cerevisiae (endogenous in yeast cells)) (UniProt P32497); experiment: co-IP
[2] = biological target: T1, Pat1-TAP (S. cerevisiae (endogenous in yeast cells)) (UniProt P25644); experiment: co-IP
T1 sequence: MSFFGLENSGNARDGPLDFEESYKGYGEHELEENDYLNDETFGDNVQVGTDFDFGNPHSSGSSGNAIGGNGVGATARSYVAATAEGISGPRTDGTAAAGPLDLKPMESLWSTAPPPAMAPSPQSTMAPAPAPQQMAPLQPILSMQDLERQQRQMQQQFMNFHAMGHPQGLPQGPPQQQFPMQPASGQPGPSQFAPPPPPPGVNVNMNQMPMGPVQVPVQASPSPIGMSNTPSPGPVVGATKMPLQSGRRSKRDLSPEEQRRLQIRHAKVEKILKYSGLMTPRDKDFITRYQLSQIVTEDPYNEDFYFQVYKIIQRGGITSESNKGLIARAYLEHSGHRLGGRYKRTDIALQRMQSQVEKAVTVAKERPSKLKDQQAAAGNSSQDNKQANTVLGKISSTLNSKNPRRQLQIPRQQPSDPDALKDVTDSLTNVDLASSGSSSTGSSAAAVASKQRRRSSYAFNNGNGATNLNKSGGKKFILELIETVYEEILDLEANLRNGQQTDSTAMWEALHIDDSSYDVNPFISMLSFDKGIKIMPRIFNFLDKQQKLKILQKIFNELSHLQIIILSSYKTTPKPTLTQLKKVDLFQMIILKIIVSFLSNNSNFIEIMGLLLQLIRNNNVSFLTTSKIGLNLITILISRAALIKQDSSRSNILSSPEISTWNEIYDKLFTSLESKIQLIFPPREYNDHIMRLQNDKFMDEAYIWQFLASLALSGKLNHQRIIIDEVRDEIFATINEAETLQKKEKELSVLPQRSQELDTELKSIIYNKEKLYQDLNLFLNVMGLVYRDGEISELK

binding [1]: binds
binding [2]: binds
B1: Rpb7 (protein, UniProt P34087 1-171)
chain: MFFIKDLSLNITLHPSFFGPRMKQYLKTKLLEEVEGSCTGKFGYILCVLDYDNIDIQRGRILPTDGSAEFNVKYRAVVFKPFKGEVVDGTVVSCSQHGFEVQVGPMKVFVTKHLMPQDLTFNAGSNPPSYQSSEDVITIKSRIRVKIEGCISQVSSIHAIGSIKEDYLGAI
